Some of the results follow. Many values rest on one well or one pass, so single values are uncertain.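 Cells were imaged in 1,536-well plates, and nuclei stained with an antibody against cleaved PARP were counted against all DNA-stained nuclei to give the apoptosis fraction. Screening doses were chosen to leave most cells alive, and resting and induced cleaved-PARP levels differ strongly between cell lines.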
Columns and labels:
Test in all cases: cleaved PARP positive nuclei fraction relative to DMSO control; melanoma cells; higher = more apoptosis
Settings in all cases: library dose: low library concentration; 72 h
A101D = system: A101D
A2058 = system: A2058
A375 = system: A375
C32 = system: C32
CBRC013 = system: CBRC013 (line from a melanoma biopsy)
CBRC014 = system: CBRC014 (line from a melanoma biopsy)
CBRC016 = system: CBRC016 (line from a melanoma biopsy)
CBRC017 = system: CBRC017 (line from a melanoma biopsy)
CBRC034 = system: CBRC034 (line from a melanoma biopsy)
COLO792 = system: COLO792
COLO800 = system: COLO800
COLO829 = system: COLO829
G361 = system: G361
IPC-298 = system: IPC-298
IST-MEL1 = system: IST-MEL1
LOXIMVI = system: LOXIMVI
CBRC008 = system: CBRC008 (line from a melanoma biopsy)
MEL-HO = system: MEL-HO

Row | Compound | cleaved PARP positive nuclei fraction (A101D) [%] | cleaved PARP positive nuclei fraction (A2058) [%] | cleaved PARP positive nuclei fraction (A375) [%] | cleaved PARP positive nuclei fraction (C32) [%] | cleaved PARP positive nuclei fraction (CBRC013) [%] | cleaved PARP positive nuclei fraction (CBRC014) [%] | cleaved PARP positive nuclei fraction (CBRC016) [%] | cleaved PARP positive nuclei fraction (CBRC017) [%] | cleaved PARP positive nuclei fraction (CBRC034) [%] | cleaved PARP positive nuclei fraction (COLO792) [%] | cleaved PARP positive nuclei fraction (COLO800) [%] | cleaved PARP positive nuclei fraction (COLO829) [%] | cleaved PARP positive nuclei fraction (G361) [%] | cleaved PARP positive nuclei fraction (IPC-298) [%] | cleaved PARP positive nuclei fraction (IST-MEL1) [%] | cleaved PARP positive nuclei fraction (LOXIMVI) [%] | cleaved PARP positive nuclei fraction (CBRC008) [%] | cleaved PARP positive nuclei fraction (MEL-HO) [%]
1 | C=CCn1c(=O)c2cnc(Nc3ccc(N4CCN(C)CC4)cc3)nc2n1-c1cccc(C(C)(C)O)n1 + Cc1cc([N+](=O)[O-])ccc1NS(=O)(=O)c1cc(Cl)ccc1Cl [FH535] (first compound 0.02 µM, partner dose 1 µM) | 138 | 103 | 317 | 85.6 | 130 | 122 | 2530 | 223 | 399 | 142 | 123 | 17.9 | 27.8 | 371 | 94.7 | 73.5 | – | –
2 | CC(=O)c1c(C)c2cnc(Nc3ccc(N4CCNCC4)cn3)nc2n(C2CCCC2)c1=O [palbociclib] + COc1ccc(COc2ccc(Cc3cnc(N)nc3N)cc2OC)cc1 [GW2580] (first compound 0.04 µM, partner dose 1 µM) | 33.5 | 106 | – | 141 | – | 127 | 101 | 103 | – | 150 | 65.5 | 130 | 148 | 53.8 | 43.8 | 91.6 | 75.7 | –
3 | CC(=O)c1c(C)c2cnc(Nc3ccc(N4CCNCC4)cn3)nc2n(C2CCCC2)c1=O [palbociclib] + O=S(=O)(c1ccccc1)N(CC(F)(F)F)c1ccc(C(O)(C(F)(F)F)C(F)(F)F)cc1 [T0901317] (first compound 0.04 µM, partner dose 1.4 µM) | 19.8 | 165 | – | 245 | – | 125 | 110 | 97.8 | – | 32.7 | 86.5 | 111 | 142 | 183 | 108 | 158 | 64.4 | –
4 | NC(=O)Nc1cc(-c2cccc(F)c2)sc1C(=O)N[C@H]1CCCNC1 + N#Cc1c(O)c2c(-c3ccc(-c4ccccc4O)cc3)csc2[nH]c1=O [A769662] (first compound 0.02 µM, partner dose 2 µM) | 64.8 | 76.4 | 275 | 74.5 | 1100 | 102 | 127 | 85.3 | 80.1 | 161 | 119 | 79.2 | 71.4 | 32 | 170 | 52.6 | – | –
5 | C=CCNC1=C2C[C@@H](C)C[C@H](OC)[C@H](O)[C@@H](C)/C=C(\C)[C@H](OC(N)=O)[C@@H](OC)/C=C\C=C(/C)C(=O)NC(=CC1=O)C2=O [Tanespimycin] + COc1ccc(-c2ccc3c(N4CCOCC4)nc(N4C[C@@H](C)O[C@@H](C)C4)nc3n2)cc1CO [KU0063794] (first compound 0.002 µM, partner dose 0.02 µM) | 11.5 | 163 | – | 87.6 | – | 110 | 55.6 | 72.4 | – | 138 | 88.3 | 273 | 80 | 101 | 44.3 | 188 | 204 | –
6 | Clc1ccc(Nc2nnc(Cc3ccncc3)c3ccccc23)cc1 [vatalanib] + COc1cc(Nc2ncc(F)c(Nc3ccc4c(n3)NC(=O)C(C)(C)O4)n2)cc(OC)c1OC [Tamatinib] (first compound 2 µM, partner dose 0.4 µM) | 93.9 | 91.5 | 133 | 116 | 111 | 121 | 136 | 93.6 | – | 194 | 117 | 175 | 56.1 | 121 | 31.6 | 112 | 318 | 170
7 | CO[C@@H]1[C@H](N(C)C(=O)c2ccccc2)C[C@H]2O[C@]1(C)n1c3ccccc3c3c4c(c5c6ccccc6n2c5c31)C(=O)NC4 [Midostaurin] + CN(NC(=O)CC(=O)NN(C)C(=S)c1ccccc1)C(=S)c1ccccc1 [STA4783] (first compound 0.08 µM, partner dose 0.006 µM) | 283 | 157 | 840 | 373 | 135 | 555 | 343 | 181 | – | 153 | 148 | 71.3 | 228 | 106 | 85.2 | 406 | 2050 | 26.4
8 | Cn1nnc2c(C(N)=O)ncn2c1=O [temozolomide] + Cc1cc([N+](=O)[O-])ccc1NS(=O)(=O)c1cc(Cl)ccc1Cl [FH535] (first compound 2 µM, partner dose 1 µM) | 138 | 211 | 135 | 81.5 | 37.3 | 148 | 2320 | 998 | 257 | 63.9 | 174 | 143 | 91.5 | 201 | 46.9 | 42.2 | – | –

Single records, from the list above. Values in the order: cleaved PARP positive nuclei fraction (A101D) [%]	cleaved PARP positive nuclei fraction (A2058) [%]	cleaved PARP positive nuclei fraction (A375) [%]	cleaved PARP positive nuclei fraction (C32) [%]	cleaved PARP positive nuclei fraction (CBRC013) [%]	cleaved PARP positive nuclei fraction (CBRC014) [%]	cleaved PARP positive nuclei fraction (CBRC016) [%]	cleaved PARP positive nuclei fraction (CBRC017) [%]	cleaved PARP positive nuclei fraction (CBRC034) [%]	cleaved PARP positive nuclei fraction (COLO792) [%]	cleaved PARP positive nuclei fraction (COLO800) [%]	cleaved PARP positive nuclei fraction (COLO829) [%]	cleaved PARP positive nuclei fraction (G361) [%]	cleaved PARP positive nuclei fraction (IPC-298) [%]	cleaved PARP positive nuclei fraction (IST-MEL1) [%]	cleaved PARP positive nuclei fraction (LOXIMVI) [%]	cleaved PARP positive nuclei fraction (CBRC008) [%]	cleaved PARP positive nuclei fraction (MEL-HO) [%]
Clc1ccc(Nc2nnc(Cc3ccncc3)c3ccccc23)cc1 [vatalanib] + COc1cc(Nc2ncc(F)c(Nc3ccc4c(n3)NC(=O)C(C)(C)O4)n2)cc(OC)c1OC [Tamatinib] (first compound 2 µM, partner dose 0.4 µM) is listed with 93.9	91.5	133	116	111	121	136	93.6	–	194	117	175	56.1	121	31.6	112	318	170
NC(=O)Nc1cc(-c2cccc(F)c2)sc1C(=O)N[C@H]1CCCNC1 + N#Cc1c(O)c2c(-c3ccc(-c4ccccc4O)cc3)csc2[nH]c1=O [A769662] (first compound 0.02 µM, partner dose 2 µM) is listed with 64.8	76.4	275	74.5	1100	102	127	85.3	80.1	161	119	79.2	71.4	32	170	52.6	–	–
